# Measurements published in PubChem BioAssay AID1671190 (National Center for Advancing Translational Sciences (NCATS), 2021).
# Protein sequences, listed by entry. Tags and fused reporters are not part of them. Lines headed by an entry give the natural chain unless they say otherwise; changes in a name come on top.
# UniProt P18054: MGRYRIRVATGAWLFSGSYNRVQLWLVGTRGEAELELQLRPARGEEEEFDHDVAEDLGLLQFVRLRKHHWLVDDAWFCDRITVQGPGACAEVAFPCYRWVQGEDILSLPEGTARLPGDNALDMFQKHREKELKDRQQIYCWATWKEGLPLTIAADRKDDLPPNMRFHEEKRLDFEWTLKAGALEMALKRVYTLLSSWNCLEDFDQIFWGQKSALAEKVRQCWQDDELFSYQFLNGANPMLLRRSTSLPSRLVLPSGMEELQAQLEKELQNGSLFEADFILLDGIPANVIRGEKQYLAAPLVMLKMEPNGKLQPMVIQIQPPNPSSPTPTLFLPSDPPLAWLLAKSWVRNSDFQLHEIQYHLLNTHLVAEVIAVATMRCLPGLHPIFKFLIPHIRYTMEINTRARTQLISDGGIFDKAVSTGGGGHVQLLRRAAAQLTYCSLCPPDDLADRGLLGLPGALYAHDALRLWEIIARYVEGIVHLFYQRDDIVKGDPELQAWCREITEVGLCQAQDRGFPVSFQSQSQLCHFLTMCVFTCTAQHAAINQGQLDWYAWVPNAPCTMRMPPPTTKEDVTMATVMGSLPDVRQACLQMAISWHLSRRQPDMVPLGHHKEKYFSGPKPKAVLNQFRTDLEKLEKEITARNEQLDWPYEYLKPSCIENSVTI
# Where “and” joins values, the source holds several entries; their conditions need not be identical. Equal entries are not always repeated. Among all 580,000 compounds or so, about 6,100 (1.1%) were called active. This list was built around the results that the source calls inconclusive (neither active nor inactive); the mix of calls is not that of the screen. The call rests on the fitted dose curve; in most records, active means well fitted inhibition curve with a large enough effect; inconclusive means small, poorly fitted or top-dose-only effect, or another doubt; inactive means no such curve, though single readings can be large or run the other way. Potencies beside an inconclusive call are fits to weak or partial responses and may not hold up.
# Molecular target: Polyunsaturated fatty acid lipoxygenase ALOX12 (Homo sapiens) (UniProt P18054)
# Assay: Primary qHTS assay for inhibitors of human arachidonate 12S-lipoxygenase (ALOX12): Round 2
# Settings: purified 12hLO, xylenol orange hydroperoxide absorbance; series mostly up to 108 µM
# How it was run: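 Hydroperoxide product was detected by ferrous iron/xylenol orange as the 573 to 405 nm absorbance ratio. Arachidonic acid at 40 uM (final) was turned over for 30 min at room temperature by 150 nM human 12hLO, pH 7.0 Hepes buffer, after 15 min compound preincubation.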
# Potency means the concentration at half of the fitted maximal effect.
row,Compound,Potency
1,O=C(CC1CCCCC1)N1CCC2(CC1)NC(=O)N(c1ccc(F)cc1)N2,"inconclusive: 10 µM [inhibitor, full curve, poor fit]"
2,CCn1nccc1C(=O)N1CCC2(CC1)NCCc1c2[nH]c2ccccc12,inactive
3,C=CCn1c(C(CCC(C)C)CC(C)(C)O)n[nH]c1=S (stereo unspecified),"inconclusive: 28.2 µM [inhibitor, partial curve, poor fit]"
4,CCc1c(C)nc2c(Cl)cccc2c1Cl,"inconclusive: 3.55 µM [inhibitor, full curve, poor fit]"
5,O=c1c(Cc2ccccc2)c(O)nc2n1CCCS2,"inconclusive: 0.251 µM [inhibitor, single point]"
6,COCCN1C(=O)N(C)C(=O)C12CCN(CCc1ccccc1)C2 (stereo unspecified),"inconclusive: 79.4 µM [inhibitor, single point]"
7,CN(C)S(=O)(=O)N(CC(=O)NCCSc1ccc(Cl)cc1)c1ccccc1,inactive
8,COc1ccccc1Cc1nnc(NC(=O)C2CCN(C(=O)c3ccco3)CC2)s1,"inconclusive: 50.1 µM [inhibitor, partial curve, poor fit]"
9,CN(C)C(=O)c1ccc(-c2nc(Nc3ccccc3)c3ccccc3n2)cc1,"inconclusive: 11.2 µM [inhibitor, partial curve, poor fit]"
10,COC(=O)[C@]1(C)N[C@H](CN(C)S(=O)(=O)c2ccc(C)cc2)[C@@H]2C(=O)N(C)C(=O)[C@@H]21,"inconclusive: 56.2 µM [inhibitor, partial curve, poor fit]"
11,CCN1/C(=c2/s/c(=C3/C(=O)N(c4ccccc4)N=C3C)n(CC)c2=O)C=Cc2ccccc21,inactive
12,CCOC(=O)N1CCN(C(=O)c2oc3ccc(S(=O)(=O)N(CC)CC)cc3c2C)CC1,"inconclusive: 63.1 µM [inhibitor, partial curve, poor fit]"
13,S=c1[nH]nc(Cc2ccccc2)n1-c1cccc2ccccc12,"inconclusive: 44.7 µM [inhibitor, partial curve, poor fit]"
14,COCCC(=O)N1CC(Oc2ccc(-c3noc(-c4ccccc4)n3)cc2)C1,inactive
15,CN(C)CCN(C(=O)c1ccc(S(=O)(=O)N(C)c2ccccc2)cc1)c1nc2cc3c(cc2s1)OCO3,"inconclusive: 35.5 µM [inhibitor, partial curve, poor fit]"
16,CC(C)NC(=O)CSc1nnc(COc2ccccc2Cl)o1,"inconclusive: 141 µM [inhibitor, single point]"
17,Fc1ccc(NC(=S)N2CCN(c3ccccn3)CC2)cc1Cl,"inconclusive: 50.1 µM [inhibitor, single point]"
18,COc1ccc(N(CC(=O)Nc2cc(C)ccc2OC)S(=O)(=O)c2c(C)noc2C)cc1,inactive
19,CCN(CC)S(=O)(=O)c1ccc2nnn(OCC(=O)Nc3cccc(C#N)c3)c2c1,"inconclusive: 112 µM [inhibitor, single point]"
20,CC(NC(=O)CCc1ncc(-c2ccc(F)cc2F)o1)c1ccc2c(c1)NC(=O)CO2 (stereo unspecified),"inconclusive: 44.7 µM [inhibitor, partial curve, poor fit]"
21,COc1cccc(CC(=O)NCCn2ccn3nc(-c4ccc(C)cc4C)cc3c2=O)c1,inactive

# 3 successive entries from above, for reference:
row,Compound,Potency
9,CN(C)C(=O)c1ccc(-c2nc(Nc3ccccc3)c3ccccc3n2)cc1,"inconclusive: 11.2 µM [inhibitor, partial curve, poor fit]"
10,COC(=O)[C@]1(C)N[C@H](CN(C)S(=O)(=O)c2ccc(C)cc2)[C@@H]2C(=O)N(C)C(=O)[C@@H]21,"inconclusive: 56.2 µM [inhibitor, partial curve, poor fit]"
11,CCN1/C(=c2/s/c(=C3/C(=O)N(c4ccccc4)N=C3C)n(CC)c2=O)C=Cc2ccccc21,inactive

# (cont.)

row,Compound,Potency
1,Clc1ccc(CNC[C@H]2Cn3c(-c4cccc(Cl)c4)cnc3CO2)cc1,inactive
2,O=C(c1ccc2c(c1)nc1n2CCCCC1)N1CCN(c2ccccc2)CC1,"inconclusive: 0.251 µM [inhibitor, full curve, poor fit]"
3,C=CC[N+]1(CC#Cc2ccc(C#CC[N+]3(CC=C)CCOCC3)cc2)CCOCC1,"inconclusive: 39.8 µM [inhibitor, single point]"
4,O=C(COc1ccc([N+](=O)[O-])cc1)Nc1cc(C(=O)O)cc(C(=O)O)c1,"inconclusive: 112 µM [inhibitor, single point]"
5,CC(=O)NC(Nc1nc2c(s1)CCCC2)(C(F)(F)F)C(F)(F)F,"inconclusive: 7.94 µM [inhibitor, full curve, poor fit]"
6,Cc1cc(NS(=O)(=O)c2ccc(NC(=O)/C=C/c3c(F)cccc3Cl)cc2)no1,"inconclusive: 112 µM [inhibitor, single point]"
7,COc1cccc(/C=C/C(=O)OCC(=O)NCCC2=CCCCC2)c1,inactive
8,C=CC[n+]1c(-c2ccc(OC)cc2)csc1NNC(=O)Nc1ccccc1,"inconclusive: 31.6 µM [inhibitor, partial curve]"
9,C=C1CCN(c2ccc(C(=O)NCc3ccccc3)cc2[N+](=O)[O-])CC1,inactive
10,CC[C@H](C)C(=O)O[C@H]1C[C@@H](C)C=C2C=C[C@H](C)[C@H](CC[C@@H]3C[C@@H](O)CC(=O)O3)[C@H]21,"inconclusive: 100 µM [inhibitor, single point]"
11,CCc1nnc(NC(=O)c2ccc(Cl)nc2)s1,"inconclusive: 100 µM [inhibitor, single point]"
12,CNC(=O)c1cccc(-c2cnc(Nc3cccnc3OC)c3c2CCO3)c1,"inconclusive: 126 µM [inhibitor, partial curve]"
13,Cc1cc(C)nc(NS(=O)(=O)c2ccc(NC(=O)c3ccco3)cc2)n1,"inconclusive: 31.6 µM [inhibitor, single point]"
14,Cc1ccc(Cn2c(CN(C)Cc3ccccc3)nc3c2c(=O)n(C)c(=O)n3C)cc1,"inconclusive: 22.4 µM [inhibitor, partial curve, poor fit] and inconclusive: 56.2 µM [inhibitor, partial curve, poor fit]"
15,CC(OC(=O)c1cc(-c2ccc(F)cc2)nc2ccccc12)C(N)=O (stereo unspecified),"inconclusive: 31.6 µM [inhibitor, partial curve]"
16,Cc1ccc(NC(=O)c2sc3nc4c(cc3c2N)CN(C(C)C)CC4)cc1,"inconclusive: 14.1 µM [inhibitor, full curve, poor fit]"
17,CC1=C(C(=O)Nc2cc(C)on2)C(c2c(Cl)cccc2Cl)NC(=O)N1C (stereo unspecified),"inconclusive: 28.2 µM [inhibitor, full curve, poor fit]"
18,COc1ccc(-c2cn[nH]c2-c2ccc(OCc3ccccc3F)cc2O)cc1OC,"inconclusive: 63.1 µM [inhibitor, partial curve, poor fit]"
19,O=C(CC1(O)C(=O)N(CCc2ccccc2)c2ccccc21)c1ccccn1 (stereo unspecified),inactive
20,COC(=O)C1=C(O)CSC1=Nc1ccccc1,"inconclusive: 35.5 µM [inhibitor, single point]"
21,CCCCNC(=O)C[C@@H]1C[C@@]2(C(=O)OCC)CCCC=C2N(Cc2ccccc2)C1=O,"inconclusive: 126 µM [inhibitor, single point]"

# Part of the list above in order of formula weight, rising:
row,Compound,Potency
15,CC(OC(=O)c1cc(-c2ccc(F)cc2)nc2ccccc12)C(N)=O (stereo unspecified),"inconclusive: 31.6 µM [inhibitor, partial curve]"
19,O=C(CC1(O)C(=O)N(CCc2ccccc2)c2ccccc21)c1ccccn1 (stereo unspecified),inactive
17,CC1=C(C(=O)Nc2cc(C)on2)C(c2c(Cl)cccc2Cl)NC(=O)N1C (stereo unspecified),"inconclusive: 28.2 µM [inhibitor, full curve, poor fit]"

# (cont.)

row,Compound,Potency
1,COc1ccc(-n2c(Cc3ccccc3)nnc2SCc2ccc([N+](=O)[O-])cc2)cc1,"inconclusive: 44.7 µM [inhibitor, partial curve, poor fit]"
2,CC(=O)c1ccc(NC(=O)N2C[C@@H]3C[C@H](C2)c2ccc(NC(=O)Nc4cccc(F)c4)c(=O)n2C3)cc1,"inconclusive: 31.6 µM [inhibitor, full curve]"
3,CN(CC(=O)Nc1cccc(F)c1)C(=O)CCc1ncc(-c2ccc(Cl)cc2Cl)o1,"inconclusive: 44.7 µM [inhibitor, partial curve, poor fit]"
4,Cc1nnc(SCC(=O)Nc2cc(C(F)(F)F)ccc2N2CCOCC2)o1,"inconclusive: 7.94 µM [inhibitor, full curve, poor fit]"
5,O=C(NCc1ccccc1Cl)C1CCC(CNc2nc(=S)[nH]c3ccccc23)CC1 (stereo unspecified),inactive
6,Cc1ccsc1C(=O)NCCSC1CCCC1,"inconclusive: 56.2 µM [inhibitor, partial curve, poor fit]"
7,Cn1c(=O)c2[nH]c(-c3ccccc3)c(O)c2n(C)c1=O,"inconclusive: 15.8 µM [inhibitor, partial curve, poor fit]"
8,CCc1nc2ccc(C(=O)Nc3cccc(OCC(=O)N(C)C)c3)cn2c1N(CCC(C)C)CCN(C)C,"inconclusive: 141 µM [inhibitor, single point]"
9,CCCN1CCCc2cc(CN(CCCN3CCOCC3)C(=O)Nc3ccc(OCC)cc3)ccc21,"inconclusive: 100 µM [inhibitor, partial curve, poor fit]"
10,CC(C)NC(=O)N(C)C[C@H]1Oc2ccc(NS(=O)(=O)c3ccccc3)cc2C(=O)N([C@H](C)CO)C[C@@H]1C,"inconclusive: 89.1 µM [inhibitor, partial curve, poor fit]"
11,CCN(Cc1nc2ccccc2c(=O)[nH]1)Cc1nc2cc(OC)c(OC)cc2c(=O)[nH]1,inactive
12,C/C(=N/Nc1ccc(S(=O)(=O)Nc2ccc(C)cc2C)cc1[N+](=O)[O-])c1ccc(Cl)s1,"inconclusive: 39.8 µM [inhibitor, single point]"
13,CC(=O)c1cc2c(=O)c3cc(C)ccc3oc2nc1C,inactive
14,COc1ccc(CCNC(=O)Cn2cnc3c(cnn3-c3ccccc3Cl)c2=O)cc1OC,inactive
15,Cc1[nH]c2ccccc2c1/C=N/NC(=O)CCC(=O)NCc1ccccc1,inactive
16,C#CCNC(=O)c1nc(-c2cccc(C(F)(F)F)c2)c2ccccn12,"inconclusive: 11.2 µM [inhibitor, full curve, poor fit]"
17,COc1ccccc1Nc1nc(-c2cccc([N+](=O)[O-])c2)nc2ccccc12,"inconclusive: 3.55 µM [inhibitor, full curve, poor fit]"
18,COc1ccc(-c2nnc3sc(C4CCCCC4)nn23)cc1OC,inactive
19,COc1ccc(CCN(Cc2ccccn2)C(=S)Nc2cccc(C)c2)cc1OC,inactive
